According to the supplement of paper PMC10849652:
The list shows a part of the results.

By UniProt entry, the sequences of proteins in these tests, tags left out. Where a name states a change or a piece, a line headed by the entry shows the natural chain unless it says otherwise.
UniProt Q99653: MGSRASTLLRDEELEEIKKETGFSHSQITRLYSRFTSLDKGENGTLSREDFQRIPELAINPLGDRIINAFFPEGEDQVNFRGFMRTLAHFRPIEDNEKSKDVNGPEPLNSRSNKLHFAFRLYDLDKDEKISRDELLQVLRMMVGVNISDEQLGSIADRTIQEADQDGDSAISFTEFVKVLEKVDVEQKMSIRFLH
UniProt Q16740, whole entry, looked up: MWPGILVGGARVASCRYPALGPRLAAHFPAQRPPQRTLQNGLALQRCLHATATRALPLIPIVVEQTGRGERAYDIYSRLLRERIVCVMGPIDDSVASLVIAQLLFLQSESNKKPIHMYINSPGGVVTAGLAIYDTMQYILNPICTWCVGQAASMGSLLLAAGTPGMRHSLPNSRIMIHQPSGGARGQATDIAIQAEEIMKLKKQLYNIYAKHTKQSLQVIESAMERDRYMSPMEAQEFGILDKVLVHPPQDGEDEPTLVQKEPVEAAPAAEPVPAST
UniProt P30085: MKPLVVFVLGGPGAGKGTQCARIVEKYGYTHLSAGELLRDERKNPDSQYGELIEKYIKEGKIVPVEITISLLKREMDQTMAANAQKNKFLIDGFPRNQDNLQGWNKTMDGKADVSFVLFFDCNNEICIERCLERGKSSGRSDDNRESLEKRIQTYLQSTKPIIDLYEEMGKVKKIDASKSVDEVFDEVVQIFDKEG
UniProt Q7Z460: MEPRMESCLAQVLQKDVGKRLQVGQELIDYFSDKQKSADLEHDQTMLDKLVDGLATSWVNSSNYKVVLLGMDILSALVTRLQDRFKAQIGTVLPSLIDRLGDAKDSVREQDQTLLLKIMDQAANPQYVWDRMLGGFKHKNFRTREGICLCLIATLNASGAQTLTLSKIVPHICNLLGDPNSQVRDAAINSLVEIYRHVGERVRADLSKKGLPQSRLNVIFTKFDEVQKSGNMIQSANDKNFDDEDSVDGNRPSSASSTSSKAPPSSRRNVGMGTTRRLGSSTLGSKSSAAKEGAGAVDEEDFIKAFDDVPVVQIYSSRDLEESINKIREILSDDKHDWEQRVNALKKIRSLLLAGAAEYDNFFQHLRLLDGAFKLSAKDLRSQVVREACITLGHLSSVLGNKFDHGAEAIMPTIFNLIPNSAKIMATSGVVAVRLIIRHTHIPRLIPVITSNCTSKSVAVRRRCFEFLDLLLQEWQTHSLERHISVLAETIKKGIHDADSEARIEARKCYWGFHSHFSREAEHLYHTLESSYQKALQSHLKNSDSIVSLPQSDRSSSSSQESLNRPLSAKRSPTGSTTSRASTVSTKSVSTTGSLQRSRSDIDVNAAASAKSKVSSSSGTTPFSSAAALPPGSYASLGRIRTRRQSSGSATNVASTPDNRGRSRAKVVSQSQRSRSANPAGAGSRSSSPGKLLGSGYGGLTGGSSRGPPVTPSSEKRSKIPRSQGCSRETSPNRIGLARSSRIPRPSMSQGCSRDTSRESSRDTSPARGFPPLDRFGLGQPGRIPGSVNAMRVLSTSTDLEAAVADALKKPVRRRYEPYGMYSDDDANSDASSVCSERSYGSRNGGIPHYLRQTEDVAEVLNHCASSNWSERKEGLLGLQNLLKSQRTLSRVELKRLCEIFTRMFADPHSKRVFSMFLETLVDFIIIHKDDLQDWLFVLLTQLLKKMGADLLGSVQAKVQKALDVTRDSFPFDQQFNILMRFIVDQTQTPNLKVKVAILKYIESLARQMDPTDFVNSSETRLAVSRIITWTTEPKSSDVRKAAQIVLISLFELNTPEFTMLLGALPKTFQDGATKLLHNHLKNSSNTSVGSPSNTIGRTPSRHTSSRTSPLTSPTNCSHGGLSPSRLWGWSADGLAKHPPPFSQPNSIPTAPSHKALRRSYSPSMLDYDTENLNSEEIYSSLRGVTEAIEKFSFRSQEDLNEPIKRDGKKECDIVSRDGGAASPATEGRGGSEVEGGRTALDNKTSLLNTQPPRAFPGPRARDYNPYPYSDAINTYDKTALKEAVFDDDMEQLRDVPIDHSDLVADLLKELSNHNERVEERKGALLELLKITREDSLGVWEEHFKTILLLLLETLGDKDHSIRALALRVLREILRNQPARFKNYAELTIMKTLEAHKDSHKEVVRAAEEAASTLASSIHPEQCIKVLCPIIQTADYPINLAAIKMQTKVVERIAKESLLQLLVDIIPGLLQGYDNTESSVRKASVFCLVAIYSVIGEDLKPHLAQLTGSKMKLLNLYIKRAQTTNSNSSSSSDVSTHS
UniProt O14967: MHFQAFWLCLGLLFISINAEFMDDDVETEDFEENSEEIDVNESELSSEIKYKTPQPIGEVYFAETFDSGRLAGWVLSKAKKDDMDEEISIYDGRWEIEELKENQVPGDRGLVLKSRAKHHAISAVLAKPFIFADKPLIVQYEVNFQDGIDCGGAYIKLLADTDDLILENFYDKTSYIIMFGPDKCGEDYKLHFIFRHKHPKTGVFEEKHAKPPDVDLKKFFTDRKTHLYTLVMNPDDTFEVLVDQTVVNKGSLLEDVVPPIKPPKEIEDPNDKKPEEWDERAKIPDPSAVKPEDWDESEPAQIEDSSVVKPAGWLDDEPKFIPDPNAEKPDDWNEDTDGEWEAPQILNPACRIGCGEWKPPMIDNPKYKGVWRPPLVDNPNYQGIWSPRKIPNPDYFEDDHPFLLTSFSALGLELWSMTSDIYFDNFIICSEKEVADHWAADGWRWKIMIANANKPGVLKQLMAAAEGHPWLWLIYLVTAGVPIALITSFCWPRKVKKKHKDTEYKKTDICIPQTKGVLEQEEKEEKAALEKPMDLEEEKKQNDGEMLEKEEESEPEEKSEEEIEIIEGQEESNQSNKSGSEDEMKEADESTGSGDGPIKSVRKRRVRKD
UniProt Q9Y3E7, whole entry, looked up: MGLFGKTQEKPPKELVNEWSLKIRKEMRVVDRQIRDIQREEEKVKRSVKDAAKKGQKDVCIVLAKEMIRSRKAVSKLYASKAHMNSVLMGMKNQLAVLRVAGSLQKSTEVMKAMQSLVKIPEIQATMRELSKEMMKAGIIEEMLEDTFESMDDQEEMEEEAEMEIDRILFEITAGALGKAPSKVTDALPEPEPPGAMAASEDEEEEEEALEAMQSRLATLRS
UniProt O76071: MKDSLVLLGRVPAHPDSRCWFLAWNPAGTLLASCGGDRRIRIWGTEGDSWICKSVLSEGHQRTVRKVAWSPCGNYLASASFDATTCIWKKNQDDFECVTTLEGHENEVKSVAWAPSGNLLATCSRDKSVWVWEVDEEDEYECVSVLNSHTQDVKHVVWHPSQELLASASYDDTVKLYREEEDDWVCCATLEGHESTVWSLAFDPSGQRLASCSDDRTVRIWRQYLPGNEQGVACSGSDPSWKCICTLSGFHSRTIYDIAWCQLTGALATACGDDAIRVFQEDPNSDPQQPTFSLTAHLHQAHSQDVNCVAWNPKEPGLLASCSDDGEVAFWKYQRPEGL
UniProt Q9NY35: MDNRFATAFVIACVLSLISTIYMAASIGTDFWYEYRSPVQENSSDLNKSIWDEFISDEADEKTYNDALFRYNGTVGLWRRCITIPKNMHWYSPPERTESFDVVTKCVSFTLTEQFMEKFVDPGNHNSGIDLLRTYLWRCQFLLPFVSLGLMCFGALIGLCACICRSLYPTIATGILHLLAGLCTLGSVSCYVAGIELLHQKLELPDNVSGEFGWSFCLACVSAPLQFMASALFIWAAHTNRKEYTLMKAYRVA

Key:
Assay in all cases: log2 fold change, soluble protein after heating vs DMSO (PISA); higher = thermal stabilisation; K562 lysate, 10 uM; active = over 0.2 and 3.5 SD of the protein, either way, in both replicates (recomputed)
vemurafenib = compound: CCCS(=O)(=O)Nc1ccc(F)c(C(=O)c2c[nH]c3ncc(-c4ccc(Cl)cc4)cc23)c1F [vemurafenib]
Method in brief: (§1)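 Values give the log-two fold change in thermal stability against solvent controls, from duplicates. Crude K562 extract at 1 mg/mL protein, made by dounce homogenisation in PBS pH 7.4 with 1 mM MgCl2, was treated with 10 μM compound for 30 min. After 3 min heating across 48°C-58°C, aliquots were pooled, adjusted to 0.5% NP-40 at 4°C and centrifuged at 21,000xg for 90 min. The supernatant was measured by TMTpro 16plex LC-MS/MS with channel sums equalised.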

[1] = compound: CCCS(=O)(=O)Nc1ccc(F)c(C(=O)c2c[nH]c3ncc(Cl)cc23)c1F
Method in brief: as §1

barasertib = compound: CCN(CCCOc1ccc2c(Nc3cc(CC(=O)Nc4cccc(F)c4)[nH]n3)ncnc2c1)CCOP(=O)(O)O [barasertib]
Method in brief: as §1

[2] = compound: CC[C@@H]1C(=O)N(C)c2cnc(Nc3ccc(C(=O)NC4CCN(C)CC4)cc3OC)nc2N1C1CCCC1
Method in brief: as §1

volasertib = compound: CC[C@@H]1C(=O)N(C)c2cnc(Nc3ccc(C(=O)N[C@H]4CC[C@H](N5CCN(CC6CC6)CC5)CC4)cc3OC)nc2N1C(C)C [volasertib]
Method in brief: as §1

[3] = compound: CCn1c(C(=O)N(C2CC2)C2CC2)cc2c3c(ncn3C)c(Nc3cc(C)n(C)n3)nc21
Method in brief: as §1

[4] = compound: CCn1cc(-c2ccnc3[nH]c(-c4cccc(CN(C)C)c4)cc23)c(-c2ccc(NC(=O)N(C)C)cc2)n1
Method in brief: as §1

[5] = compound: CN1CCC(CNc2ccc3ncc(-c4cccc(OC(F)(F)F)c4)n3n2)CC1
Method in brief: as §1

saracatinib = compound: CN1CCN(CCOc2cc(OC3CCOCC3)c3c(Nc4c(Cl)ccc5c4OCO5)ncnc3c2)CC1 [saracatinib]
Method in brief: as §1

sotrastaurin = compound: CN1CCN(c2nc(C3=C(c4c[nH]c5ccccc45)C(=O)NC3=O)c3ccccc3n2)CC1 [sotrastaurin]
Method in brief: as §1

alvocidib = compound: CN1CC[C@H](c2c(O)cc(O)c3c(=O)cc(-c4ccccc4Cl)oc23)[C@H](O)C1 [alvocidib]
Method in brief: as §1

Tubastatin A = compound: CN1CCc2c(c3ccccc3n2Cc2ccc(C(=O)NO)cc2)C1 [Tubastatin A]
Method in brief: as §1

[6] = compound: CNC(=O)C1=CC=CC=C1NC2=NC(=NC=C2Cl)NC3=C(C=C(C=C3)N4CCOCC4)OC
Method in brief: as §1

defactinib = compound: CNC(=O)c1ccc(Nc2ncc(C(F)(F)F)c(NCc3nccnc3N(C)S(C)(=O)=O)n2)cc1 [defactinib]
Method in brief: as §1

[7] = compound: CNc1nc(-c2ccc3c(N)n[nH]c3c2)cc(N2C[C@@H](C(=O)NC3CCCCC3)CC[C@H]2C)n1
Method in brief: as §1

encorafenib = compound: COC(=O)N[C@@H](C)CNc1nccc(-c2cn(C(C)C)nc2-c2cc(Cl)cc(NS(C)(=O)=O)c2F)n1 [encorafenib]
Method in brief: as §1

[8] = compound: COC(=O)[C@H](CCSC)NC(=O)C1=C(C=C(C=C1)NC[C@H](CS)N)C2=CC=CC=C2
Method in brief: as §1

alisertib = compound: COc1cc(Nc2ncc3c(n2)-c2ccc(Cl)cc2C(c2c(F)cccc2OC)=NC3)ccc1C(=O)O [alisertib]
Method in brief: as §1

[9] = compound: COc1cc2nc(-c3cc(F)ccc3O)nc(N[C@@H]3CNC[C@H]3C(C)(C)O)c2cc1OC
Method in brief: as §1

gefitinib = compound: COc1cc2ncnc(Nc3ccc(F)c(Cl)c3)c2cc1OCCCN1CCOCC1 [gefitinib]
Method in brief: as §1

Measured: log2 fold change

CHP1 (UniProt Q99653)
inactive: vemurafenib 0.073 | [1] 0.009 | barasertib 0.096 | [2] 0.066 | volasertib -0.026 | [3] -0.032 | [4] -0.196 | [5] 0.102 | saracatinib -0.025 | sotrastaurin 0.019 | alvocidib -0.106 | Tubastatin A 0.047 | [6] 0.036 | defactinib 0.02 | [7] 0.031 | encorafenib 0.016 | [8] -0.075 | alisertib -0.014 | [9] -0.012 | gefitinib 0.061

CLPP (UniProt Q16740)
inactive: vemurafenib -0.016 | [1] 0.009 | barasertib 0.143 | [2] -0.032 | volasertib -0.009 | [3] 0.007 | [4] -0.046 | [5] -0.021 | saracatinib -0.01 | sotrastaurin -0.002 | alvocidib 0.027 | Tubastatin A 0.058 | [6] -0.011 | defactinib 0.059 | [7] -0.028 | encorafenib -0.023 | [8] 0.005 | alisertib 0.005 | [9] -0.007 | gefitinib -0.043

CMPK1 (UniProt P30085)
inactive: vemurafenib -0.071 | [1] -0.047 | barasertib -0.033 | [2] -0.043 | volasertib -0.001 | [3] 0.008 | [4] -0.097 | [5] 0.066 | saracatinib 0.027 | sotrastaurin 0.031 | alvocidib 0.003 | Tubastatin A -0.001 | [6] -0.017 | defactinib 0.038 | [7] -0.07 | encorafenib 0 | [8] -0.03 | alisertib 0.033 | [9] -0.019 | gefitinib 0.008

CLASP1 (UniProt Q7Z460)
inactive: vemurafenib 0.025 | [1] 0.013 | barasertib 0.048 | [2] -0.03 | volasertib -0.018 | [3] 0.039 | [4] -0.043 | [5] 0.042 | saracatinib 0.028 | sotrastaurin -0.022 | alvocidib -0.057 | Tubastatin A -0.032 | [6] -0.005 | defactinib -0.037 | [7] -0.006 | encorafenib 0.058 | [8] 0.009 | alisertib 0.036 | [9] -0.001 | gefitinib 0.018

CLGN (UniProt O14967)
inactive: vemurafenib 0.139 | [1] -0.018 | barasertib 0.024 | [2] -0.048 | volasertib 0.012 | [3] 0.02 | [4] -0.082 | [5] 0.06 | saracatinib 0.043 | sotrastaurin 0.042 | alvocidib -0.027 | Tubastatin A 0.003 | [6] 0 | defactinib 0.015 | [7] 0.036 | encorafenib 0.019 | [8] -0.011 | alisertib 0.021 | [9] 0.022 | gefitinib 0.056

CHMP3 (UniProt Q9Y3E7)
inactive: vemurafenib -0.008 | [1] 0.03 | barasertib -0.036 | [2] 0.014 | volasertib 0.011 | [3] -0.038 | [4] 0.003 | [5] -0.013 | saracatinib 0.015 | sotrastaurin -0.041 | alvocidib -0.009 | Tubastatin A 0.055 | [6] 0.024 | defactinib -0.004 | [7] 0.078 | encorafenib -0.012 | [8] -0.008 | alisertib 0.027 | [9] 0.002 | gefitinib -0.021

CIAO1 (UniProt O76071)
inactive: vemurafenib -0.018 | [1] -0.009 | barasertib 0.05 | [2] -0.03 | volasertib 0.001 | [3] -0.049 | [4] -0.002 | [5] 0.002 | saracatinib 0.03 | sotrastaurin -0.018 | alvocidib -0.046 | Tubastatin A 0.007 | [6] 0.033 | defactinib -0.006 | [7] 0.037 | encorafenib 0.037 | [8] -0.014 | alisertib 0.024 | [9] 0.02 | gefitinib -0.064

CLDND1 (UniProt Q9NY35)
inactive: vemurafenib -0.044 | [1] 0.012 | barasertib 0.001 | [2] 0.053 | volasertib -0.022 | [3] 0.097 | [4] -0.131 | [5] 0.111 | saracatinib 0.01 | sotrastaurin 0.086 | alvocidib -0.03 | Tubastatin A -0.03 | [6] -0.052 | defactinib 0.015 | [7] -0.026 | encorafenib -0.062 | [8] -0.05 | alisertib 0.018 | [9] 0.054 | gefitinib -0.024
